Taken from: PubChem BioAssay AID743121 (NCATS, 2013)
Aim: 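Partners whose loss is lethal together with topoisomerase I blockade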 (primary screen). Cells: MDA-MB-231 cells, a human breast cancer line. Knock-down reagent: single siRNA against human genes, 20 nM siRNA (0.8 pmol per well). Duration: 120 h (drug added 48 h after transfection, read 72 h later). Conditions: camptothecin 20 nM (about EC30) for 72 h; vehicle 0.1% DMSO in parallel plates. Measured: 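Cell viability by ATP luminescence (CellTiter-Glo) as % of non-targeting siRNA wells, and the log2 ratio of viability without drug over viability with camptothecin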. Reading the numbers: log2 vehicle/camptothecin viability: higher = stronger sensitisation to camptothecin. Hit rule: 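Active genes have an RSA gene-level p-value below 0.001, computed from the ratios of their separate siRNAs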.
In all, the deposit lists about 26,000 reagents; this is an unselected part. Of all reagents, 167 (0.63%) got an active call. 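Calls are per gene from RSA p-values that are not deposited; an individual active-marked siRNA can sensitise only weakly.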 Unmarked entries are inactive. The numbers tell different reagents against one gene apart. Further read-outs or replicates are left out here.

FBXW2 #1
- log2 vehicle/camptothecin viability: -0.512

FBXW2 #2
- log2 vehicle/camptothecin viability: -0.113

FBXW2 #3
- log2 vehicle/camptothecin viability: -0.397

FBXW2 #4
- log2 vehicle/camptothecin viability: -0.279

GAS6 #1
- log2 vehicle/camptothecin viability: -0.119

GAS6 #2
- log2 vehicle/camptothecin viability: 0.18

GAS6 #3
- log2 vehicle/camptothecin viability: 0.0853

GAS6 #4
- log2 vehicle/camptothecin viability: -0.215

ARIH2 #1
- log2 vehicle/camptothecin viability: 0.095

ARIH2 #2
- log2 vehicle/camptothecin viability: -0.294

ARIH2 #3
- log2 vehicle/camptothecin viability: 0.329

ARIH2 #4
- log2 vehicle/camptothecin viability: -0.0693

ERCC3 #1
- log2 vehicle/camptothecin viability: -0.42

ERCC3 #2
- log2 vehicle/camptothecin viability: -0.373

ERCC3 #3
- log2 vehicle/camptothecin viability: -0.47

ERCC3 #4
- log2 vehicle/camptothecin viability: 0.0359

AKAP13 #1
- log2 vehicle/camptothecin viability: -0.57 (active)

AKAP13 #2
- log2 vehicle/camptothecin viability: 1.09 (active)

AKAP13 #3
- log2 vehicle/camptothecin viability: 0.259 (active)

AKAP13 #4
- log2 vehicle/camptothecin viability: 0.997 (active)

CATSPER2 #1
- log2 vehicle/camptothecin viability: 0.229

CATSPER2 #2
- log2 vehicle/camptothecin viability: -0.387

CATSPER2 #3
- log2 vehicle/camptothecin viability: 0.181

CATSPER2 #4
- log2 vehicle/camptothecin viability: -0.172

CATSPER2 #5
- log2 vehicle/camptothecin viability: -0.168

CATSPER2 #6
- log2 vehicle/camptothecin viability: 0.221

Entries listed above with an active call (4):
AKAP13 #1
- log2 vehicle/camptothecin viability: -0.57 (active)

AKAP13 #2
- log2 vehicle/camptothecin viability: 1.09 (active)

AKAP13 #3
- log2 vehicle/camptothecin viability: 0.259 (active)

AKAP13 #4
- log2 vehicle/camptothecin viability: 0.997 (active)
